Data from the supplement of paper PMC12067093, “Discovery and optimisation of a covalent ligand for TRIM25 and its application to targeted protein ubiquitination” (Chemical Science, 2025).
Some of the results follow.

The chains behind the UniProt entries cited, without tags or fusion partners. Where a name states a change or a piece, a line headed by the entry shows the natural chain unless it says otherwise.
UniProt Q7LBC6: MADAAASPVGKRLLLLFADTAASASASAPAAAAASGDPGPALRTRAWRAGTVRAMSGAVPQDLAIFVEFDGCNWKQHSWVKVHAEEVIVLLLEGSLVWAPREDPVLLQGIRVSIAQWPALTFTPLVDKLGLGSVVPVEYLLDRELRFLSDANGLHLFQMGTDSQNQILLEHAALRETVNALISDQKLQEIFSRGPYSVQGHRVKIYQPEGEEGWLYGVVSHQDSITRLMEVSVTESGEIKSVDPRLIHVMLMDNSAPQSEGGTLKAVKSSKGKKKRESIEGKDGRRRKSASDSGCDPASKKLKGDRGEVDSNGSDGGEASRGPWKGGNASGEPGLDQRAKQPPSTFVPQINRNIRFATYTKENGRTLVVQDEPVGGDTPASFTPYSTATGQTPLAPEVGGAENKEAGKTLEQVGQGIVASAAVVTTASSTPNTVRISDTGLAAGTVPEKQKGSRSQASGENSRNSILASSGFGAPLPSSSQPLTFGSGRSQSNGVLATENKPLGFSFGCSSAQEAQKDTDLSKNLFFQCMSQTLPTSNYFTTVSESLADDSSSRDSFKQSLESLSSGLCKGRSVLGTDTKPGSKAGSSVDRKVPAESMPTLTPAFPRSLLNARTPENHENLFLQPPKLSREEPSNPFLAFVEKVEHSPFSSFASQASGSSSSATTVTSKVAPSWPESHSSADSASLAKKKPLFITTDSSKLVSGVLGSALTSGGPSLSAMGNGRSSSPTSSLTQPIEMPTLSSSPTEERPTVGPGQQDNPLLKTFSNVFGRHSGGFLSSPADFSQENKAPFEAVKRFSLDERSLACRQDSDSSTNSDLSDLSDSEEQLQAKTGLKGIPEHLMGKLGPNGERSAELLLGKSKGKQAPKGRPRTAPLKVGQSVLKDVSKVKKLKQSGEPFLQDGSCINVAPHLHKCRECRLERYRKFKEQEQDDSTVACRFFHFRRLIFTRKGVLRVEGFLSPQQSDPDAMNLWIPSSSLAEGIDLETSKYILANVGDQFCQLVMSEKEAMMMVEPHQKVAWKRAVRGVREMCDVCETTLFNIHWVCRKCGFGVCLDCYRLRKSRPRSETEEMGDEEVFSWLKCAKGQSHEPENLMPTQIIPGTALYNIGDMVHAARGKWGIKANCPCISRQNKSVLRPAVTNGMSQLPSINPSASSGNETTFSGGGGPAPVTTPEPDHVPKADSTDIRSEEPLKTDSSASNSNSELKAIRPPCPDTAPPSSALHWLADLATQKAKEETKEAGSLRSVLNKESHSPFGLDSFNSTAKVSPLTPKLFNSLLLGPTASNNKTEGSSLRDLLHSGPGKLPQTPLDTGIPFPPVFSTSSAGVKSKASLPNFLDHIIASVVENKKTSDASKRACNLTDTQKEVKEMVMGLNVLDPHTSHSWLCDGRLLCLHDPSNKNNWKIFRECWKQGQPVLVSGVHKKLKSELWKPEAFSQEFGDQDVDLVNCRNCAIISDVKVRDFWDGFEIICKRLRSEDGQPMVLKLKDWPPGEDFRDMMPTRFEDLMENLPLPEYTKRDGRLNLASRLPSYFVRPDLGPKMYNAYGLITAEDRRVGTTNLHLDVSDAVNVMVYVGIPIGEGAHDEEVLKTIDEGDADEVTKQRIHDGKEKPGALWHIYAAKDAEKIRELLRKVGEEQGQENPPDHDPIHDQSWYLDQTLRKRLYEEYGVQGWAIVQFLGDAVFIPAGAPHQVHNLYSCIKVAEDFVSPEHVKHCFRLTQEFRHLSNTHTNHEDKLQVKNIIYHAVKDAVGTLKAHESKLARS
UniProt Q15652: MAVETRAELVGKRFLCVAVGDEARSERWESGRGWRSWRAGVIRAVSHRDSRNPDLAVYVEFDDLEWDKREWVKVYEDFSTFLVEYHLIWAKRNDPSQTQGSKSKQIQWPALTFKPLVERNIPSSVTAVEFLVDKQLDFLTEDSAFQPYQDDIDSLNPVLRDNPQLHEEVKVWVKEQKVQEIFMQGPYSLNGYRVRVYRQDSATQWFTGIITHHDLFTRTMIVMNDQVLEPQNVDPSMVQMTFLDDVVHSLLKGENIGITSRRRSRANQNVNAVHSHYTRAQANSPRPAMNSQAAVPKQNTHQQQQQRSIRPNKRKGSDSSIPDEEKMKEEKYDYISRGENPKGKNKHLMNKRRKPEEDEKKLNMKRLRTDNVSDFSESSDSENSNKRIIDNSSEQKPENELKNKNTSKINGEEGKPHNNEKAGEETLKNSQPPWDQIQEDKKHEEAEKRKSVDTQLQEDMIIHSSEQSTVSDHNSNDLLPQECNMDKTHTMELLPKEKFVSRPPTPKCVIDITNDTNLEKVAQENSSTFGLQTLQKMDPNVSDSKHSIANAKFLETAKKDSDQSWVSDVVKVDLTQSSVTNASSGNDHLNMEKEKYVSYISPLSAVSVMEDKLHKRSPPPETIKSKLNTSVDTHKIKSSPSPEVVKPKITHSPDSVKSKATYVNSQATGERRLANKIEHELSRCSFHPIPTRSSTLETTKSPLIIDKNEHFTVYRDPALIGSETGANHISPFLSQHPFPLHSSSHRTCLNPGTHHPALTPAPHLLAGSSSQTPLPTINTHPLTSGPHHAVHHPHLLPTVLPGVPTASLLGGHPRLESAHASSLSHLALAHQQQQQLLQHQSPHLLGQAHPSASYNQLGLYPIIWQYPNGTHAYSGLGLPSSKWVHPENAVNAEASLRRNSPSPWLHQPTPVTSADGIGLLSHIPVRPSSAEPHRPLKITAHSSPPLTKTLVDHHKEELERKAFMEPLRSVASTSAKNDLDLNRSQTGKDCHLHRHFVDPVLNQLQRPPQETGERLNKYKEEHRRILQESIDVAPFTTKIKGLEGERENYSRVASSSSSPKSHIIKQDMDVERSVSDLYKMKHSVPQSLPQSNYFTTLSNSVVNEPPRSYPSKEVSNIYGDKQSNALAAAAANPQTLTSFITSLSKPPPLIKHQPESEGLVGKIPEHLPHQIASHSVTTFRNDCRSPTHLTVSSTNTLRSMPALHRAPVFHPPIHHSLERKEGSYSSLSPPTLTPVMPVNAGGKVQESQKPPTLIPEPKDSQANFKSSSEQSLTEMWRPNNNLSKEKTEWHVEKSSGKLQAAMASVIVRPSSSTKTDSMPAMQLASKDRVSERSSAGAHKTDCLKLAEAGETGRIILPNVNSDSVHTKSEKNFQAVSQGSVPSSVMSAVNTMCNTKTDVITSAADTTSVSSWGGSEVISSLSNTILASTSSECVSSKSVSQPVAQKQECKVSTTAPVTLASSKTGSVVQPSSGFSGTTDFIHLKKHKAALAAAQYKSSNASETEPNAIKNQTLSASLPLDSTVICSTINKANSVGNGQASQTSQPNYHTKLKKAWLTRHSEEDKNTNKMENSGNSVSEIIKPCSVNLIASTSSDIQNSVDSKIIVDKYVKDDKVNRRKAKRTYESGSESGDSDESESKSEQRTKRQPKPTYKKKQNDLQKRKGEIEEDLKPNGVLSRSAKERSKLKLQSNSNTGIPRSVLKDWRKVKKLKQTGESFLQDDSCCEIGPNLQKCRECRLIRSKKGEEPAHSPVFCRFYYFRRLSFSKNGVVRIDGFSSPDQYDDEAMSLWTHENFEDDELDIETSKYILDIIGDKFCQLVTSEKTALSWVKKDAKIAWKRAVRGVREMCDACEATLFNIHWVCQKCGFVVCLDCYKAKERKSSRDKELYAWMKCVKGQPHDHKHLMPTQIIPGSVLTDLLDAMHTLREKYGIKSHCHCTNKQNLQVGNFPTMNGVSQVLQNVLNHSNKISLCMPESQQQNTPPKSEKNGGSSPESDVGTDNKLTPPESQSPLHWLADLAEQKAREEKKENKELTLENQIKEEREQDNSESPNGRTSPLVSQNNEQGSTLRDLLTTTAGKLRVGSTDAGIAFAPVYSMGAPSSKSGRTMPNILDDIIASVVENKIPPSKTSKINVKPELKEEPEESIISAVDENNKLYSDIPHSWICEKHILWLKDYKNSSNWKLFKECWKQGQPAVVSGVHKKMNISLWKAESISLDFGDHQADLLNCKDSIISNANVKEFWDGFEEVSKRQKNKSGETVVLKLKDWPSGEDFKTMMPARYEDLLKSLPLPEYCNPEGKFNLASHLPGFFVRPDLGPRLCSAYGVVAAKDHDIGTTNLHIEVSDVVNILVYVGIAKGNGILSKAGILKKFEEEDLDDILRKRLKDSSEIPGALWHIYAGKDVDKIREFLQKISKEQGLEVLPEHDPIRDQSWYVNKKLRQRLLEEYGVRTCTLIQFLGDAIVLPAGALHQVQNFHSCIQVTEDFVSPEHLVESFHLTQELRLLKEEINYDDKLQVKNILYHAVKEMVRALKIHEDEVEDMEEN
UniProt Q9ULH0: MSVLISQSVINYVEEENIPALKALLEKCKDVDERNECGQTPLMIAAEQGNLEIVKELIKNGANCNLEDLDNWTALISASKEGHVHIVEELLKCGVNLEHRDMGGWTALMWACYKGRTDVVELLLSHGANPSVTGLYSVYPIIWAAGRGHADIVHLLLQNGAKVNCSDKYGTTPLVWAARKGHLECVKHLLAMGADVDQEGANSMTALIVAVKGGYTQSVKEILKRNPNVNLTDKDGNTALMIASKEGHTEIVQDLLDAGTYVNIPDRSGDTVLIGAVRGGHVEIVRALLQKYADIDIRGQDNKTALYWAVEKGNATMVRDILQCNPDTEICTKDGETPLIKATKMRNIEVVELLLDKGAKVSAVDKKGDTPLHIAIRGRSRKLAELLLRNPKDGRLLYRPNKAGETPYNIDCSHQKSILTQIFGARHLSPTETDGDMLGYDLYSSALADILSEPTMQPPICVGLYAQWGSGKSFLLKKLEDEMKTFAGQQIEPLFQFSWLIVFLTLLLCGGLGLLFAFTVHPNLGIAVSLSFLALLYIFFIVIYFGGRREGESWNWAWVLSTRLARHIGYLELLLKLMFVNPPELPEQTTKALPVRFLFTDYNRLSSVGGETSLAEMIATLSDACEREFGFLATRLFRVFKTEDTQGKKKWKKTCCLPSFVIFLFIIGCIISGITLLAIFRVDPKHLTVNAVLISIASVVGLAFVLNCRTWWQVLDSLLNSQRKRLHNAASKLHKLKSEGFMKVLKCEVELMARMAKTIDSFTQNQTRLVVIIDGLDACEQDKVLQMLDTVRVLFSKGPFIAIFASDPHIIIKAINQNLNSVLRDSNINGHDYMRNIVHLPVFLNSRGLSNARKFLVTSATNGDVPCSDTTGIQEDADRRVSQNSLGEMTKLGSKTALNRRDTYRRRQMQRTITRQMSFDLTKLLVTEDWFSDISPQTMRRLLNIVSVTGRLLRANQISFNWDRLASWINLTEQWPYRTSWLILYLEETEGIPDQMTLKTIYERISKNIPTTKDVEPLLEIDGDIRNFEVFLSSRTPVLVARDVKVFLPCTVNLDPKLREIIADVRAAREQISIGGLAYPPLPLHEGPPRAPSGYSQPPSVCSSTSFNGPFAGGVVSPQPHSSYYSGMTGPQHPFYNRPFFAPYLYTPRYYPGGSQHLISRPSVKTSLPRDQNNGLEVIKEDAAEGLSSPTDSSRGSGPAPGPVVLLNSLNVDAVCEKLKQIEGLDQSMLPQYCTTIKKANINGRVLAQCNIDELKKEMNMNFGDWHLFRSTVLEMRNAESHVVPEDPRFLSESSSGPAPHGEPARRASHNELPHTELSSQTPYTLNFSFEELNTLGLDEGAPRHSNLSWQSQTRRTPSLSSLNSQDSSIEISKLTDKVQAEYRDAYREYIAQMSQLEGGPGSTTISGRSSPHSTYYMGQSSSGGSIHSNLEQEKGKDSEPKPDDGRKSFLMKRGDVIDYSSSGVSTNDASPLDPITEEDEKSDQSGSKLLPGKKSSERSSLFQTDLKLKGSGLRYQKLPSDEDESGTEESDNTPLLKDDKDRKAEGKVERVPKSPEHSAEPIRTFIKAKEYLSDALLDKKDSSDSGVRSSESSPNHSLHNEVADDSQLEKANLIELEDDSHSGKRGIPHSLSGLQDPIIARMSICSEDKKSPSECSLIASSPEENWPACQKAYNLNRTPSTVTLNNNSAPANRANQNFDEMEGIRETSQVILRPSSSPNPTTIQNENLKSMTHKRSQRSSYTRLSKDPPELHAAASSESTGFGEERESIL
UniProt Q7Z4H8: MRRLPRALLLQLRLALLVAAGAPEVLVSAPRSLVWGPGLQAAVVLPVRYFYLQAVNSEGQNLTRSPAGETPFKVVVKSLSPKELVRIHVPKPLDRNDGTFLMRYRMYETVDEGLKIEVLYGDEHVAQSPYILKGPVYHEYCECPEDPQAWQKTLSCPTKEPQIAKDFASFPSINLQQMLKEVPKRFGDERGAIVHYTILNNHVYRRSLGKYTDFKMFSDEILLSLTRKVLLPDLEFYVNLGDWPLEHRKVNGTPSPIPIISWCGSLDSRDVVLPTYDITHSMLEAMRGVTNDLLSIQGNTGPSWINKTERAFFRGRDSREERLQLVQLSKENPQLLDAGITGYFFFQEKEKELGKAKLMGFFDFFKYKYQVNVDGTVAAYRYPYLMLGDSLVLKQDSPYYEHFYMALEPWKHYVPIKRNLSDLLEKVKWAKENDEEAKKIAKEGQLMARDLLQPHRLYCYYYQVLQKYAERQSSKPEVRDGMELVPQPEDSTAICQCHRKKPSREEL

compound: Cc1cc(ccc1-c1ccccc1)C(=O)N1CCCN(CC1)C(=O)CCl [compound 10]; experiment: probe-labelled cysteine peptide fold change vs DMSO (competition) (log2 fold change); higher = less target engagement (more negative = stronger competition); settings: 50 µM; THP-1; incubation time: 4 h
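Note: competitive profiling in live THP-1 cells: cysteine peptides tagged with an iodoacetamide desthiobiotin (IA-DTB) probe, intensity after compound treatment relative to DMSO-treated cells.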

Target	probe-labelled cysteine peptide fold change
ITPR2_Q14571_1415_VVTHDDCIPEVK (UniProt Q14571)	0.158
KIF18B_Q86Y91_437_SGPPPEHLPSSPLPPHPPSQPCTPELPAGPR (UniProt Q86Y91)	-0.226
KDM3B_Q7LBC6_1470_VRDFWDGFEIICK (UniProt Q7LBC6)	-0.492
KDM3B_Q7LBC6_1212_AIRPPCPDTAPPSSALHWLADLATQK (UniProt Q7LBC6)	-0.341
JMJD1C_Q15652_1871_CGFVVCLDCYK (UniProt Q15652)	0.209
KIF20B_Q96Q89_80_ELESEGCVHILDSQTVVLK (UniProt Q96Q89)	-0.089
KCTD18_Q6PI47_56_TDESGACVIDR (UniProt Q6PI47)	0.314
ITPR1_Q14643_2536_EHTCETLLMCIVTVLSHGLR (UniProt Q14643)	0.145
IVD_P26440_254+261_GSNTCELIFEDCK (UniProt P26440)	0.318
KBTBD2_Q8IY47_145_LLSFADLFSCEELK (UniProt Q8IY47)	-0.143
KDM5B_Q9UGL1_1072_ECAVNTFLTENSPYSLLEVLCPR (UniProt Q9UGL1)	0.17
JARID2_Q92833_206_TATNNASSSCQSTPR (UniProt Q92833)	-0.701
JMJD6_Q6NYC1_207_WCLFPTSTPR (UniProt Q6NYC1)	-0.0425
KEAP1_Q14145_273_CHSLTPNFLQMQLQK (UniProt Q14145)	-0.0914
KARS_Q15046_496_EICNAYTELNDPMR (UniProt Q15046)	-0.0822
KIAA0930_Q6ICG6_119_LDYMVTCAVCTR (UniProt Q6ICG6)	0.138
KANSL2_Q9H9L4_88_DGVSFCAEHVR (UniProt Q9H9L4)	0.0649
KATNA1_O75449_491_WIFEFGSC (UniProt O75449)	0.0599
KIDINS220_Q9ULH0_747_CEVELMAR (UniProt Q9ULH0)	-0.107

Target	probe-labelled cysteine peptide fold change
KIDINS220_Q9ULH0_867_FLVTSATNGDVPCSDTTGIQEDADRR (UniProt Q9ULH0)	-0.0611
KAT6B_Q8WYB5_837_GCHLVGYFSK (UniProt Q8WYB5)	0.151
JMJD1C_Q15652_1721+1722_QTGESFLQDDSCCEIGPNLQK (UniProt Q15652)	-0.302
KDM2A_Q9Y2K7_463_CLVDKLESLPLHKK (UniProt Q9Y2K7)	-0.84
KDM4A_O75164_763_ASEDWMCSR (UniProt O75164)	0.0792
KIF20A_O95235_809_AACIAEQYHTVLK (UniProt O95235)	-0.075
JAK1_P23458_257_TICDSSVSTHDLK (UniProt P23458)	-0.0306
KANK2_Q63ZY3_562_QECQLSR (UniProt Q63ZY3)	-0.579
KDSR_Q06136_245_LISETTSVCKPEQVAK (UniProt Q06136)	-0.142
KEAP1_Q14145_368_SGLAGCVVGGLLYAVGGR (UniProt Q14145)	0.035
KIF21A_Q7Z4S6_1588_DWVCALGVVPDHPVLLSGCR (UniProt Q7Z4S6)	0.15
KATNB1_Q9BVA0_499_GHDTMCVVLTSR (UniProt Q9BVA0)	0.296
KHSRP_Q92945_379_CEHAAR (UniProt Q92945)	-0.0173
ITPR1_Q14643_1471_ACNNTSDR (UniProt Q14643)	0.625
KIAA1958_Q8N8K9_246_PKPQTHAGPSCVGSAK (UniProt Q8N8K9)	-0.781
KDELC2_Q7Z4H8_497_DGMELVPQPEDSTAICQCHR (UniProt Q7Z4H8)	-0.306
KANK2_Q63ZY3_761+780_ALLACEADVNVQDDDGSTALMCACEHGHK (UniProt Q63ZY3)	-0.142
KHDC4_Q7Z7F0_116_SKDDLVVAEVEINDVPLTCR (UniProt Q7Z7F0)	-0.301
KHSRP_Q92945_436_CGLVIGR (UniProt Q92945)	-0.213
